Earlier results in PMC7954469 (European journal of medicinal chemistry, 2021).

Test system: p97
Conditions: cited from earlier work

**Q.** With Clc1ccccc1C(c1ccccc1)(c1ccccc1)n1ccnc1 [Clotrimazole] as the compound, how does the IC50 read?
**A.** 12 µM
